Assay: Cumulative in vitro dissolution of nifedipine and metoprolol (Example 2 tablet), USP dissolution apparatus No. 2, 100 rpm, pH 6.5 with 1% sodium dodecylsulphate
Assay type: physicochemical
Conditions: pH 6.5, 1% sodium dodecylsulphate
Protocol: The in vitro dissolution of both nifedipine and metoprolol from the tablet was extended, see Table 2.
Cumulative in vitro dissolution of nifedipine and metroprolol in a
phosphate buffer of pH 6.5 with 1% sodium dodecylsulphate.
Method: USP dissolution apparatus No. 2, 100 rpm.

- Percent released over time (h) (0 h): 0%
- Percent released over time (h) (2 h): 12%
- Percent released over time (h) (4 h): 26%
- Percent released over time (h) (8 h): 44%
- Percent released over time (h) (12 h): 72%
- Percent released over time (h) (16 h): 90%
- Percent released over time (h) (20 h): 98%
Compound: COC(=O)C1=C(C)NC(C)=C(C(=O)OC)C1c1ccccc1[N+](=O)[O-] [nifedipine, 1,4-dihydro-2,6-dimethyl-4-(2-nitrophenyl)-3,5-pyridinecarboxylic acid dimethyl ester]

Source: patent US4942040A, “Pharmaceutical preparation and a process for its preparation” (priority 1987, dated 1990)
